This test relates to BDF1 mice, P388 leukemia ip, median survival T/C. The experiment in a line: NCI In Vivo Anticancer Drug Screen. Data for tumor model P388 Leukemia (intraperitoneal) in B6D2F1 (BDF1) mice. The note with it: T/C endpoint: median survival time, higher T/C = longer survival. The essentials: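 Reported as T/C, where T is the survival measurement in dosed animals and C the same measurement in vehicle controls.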

Setting [1] is: dose: 100.0 mg/kg/injection, schedule: Q04DX003 (ip), vehicle: saline with Tween-80.
The mark [2] stands for this setting: dose: 200.0 mg/kg/injection, schedule: Q04DX003 (ip), vehicle: saline with Tween-80.

The list is a part of this screen's results and no random one: its compounds were picked by chemical class. Not every dose and run of a compound is shown. T/C gives the treated animals as a percentage of the vehicle group. For survival time, the PubChem record calls one and a half times the control and up active, and a quarter to a half above the control has no call in these data; cut-offs in other NCI protocols can differ. Some entries show no survivor count and are marked so; the dose need not have been tolerated. Schedule codes are those of the source, read here as Q, the interval in days (D) or hours (H), X, the number of doses. Some entries were tested several times; the results are listed from low to high.

`Cc1ccc(S(=O)(=O)CN(CCBr)CCBr)cc1`: the T/C (dose: 12.5 mg/kg/injection, schedule: Q01DX009 (ip), vehicle: saline with Tween-80) is 108 [survivor count not shown] and 178 % of control [survivor count not shown]; the T/C (dose: 25.0 mg/kg/injection, schedule: Q01DX009 (ip), vehicle: saline with Tween-80) is 161 % of control [survivor count not shown]; the T/C (dose: 50.0 mg/kg/injection, schedule: Q01DX009 (ip), vehicle: saline with Tween-80) was 205 [survivor count not shown] and 218 % of control [survivor count not shown].

Take `Cn1c(=O)[nH]cc(N(CCCl)CCCl)c1=O`: the T/C (dose: 0.15 mg/kg/injection, schedule: Q01DX009 (ip), vehicle: saline) was 87 % of control [survivor count not shown]; the T/C (dose: 0.31 mg/kg/injection, schedule: Q01DX009 (ip), vehicle: saline) was 112 [survivor count not shown] and 145 % of control [survivor count not shown]; the T/C (dose: 0.4 mg/kg/injection, schedule: Q01DX009 (ip), vehicle: saline) was 131 % of control [survivor count not shown]; the T/C (dose: 0.62 mg/kg/injection, schedule: Q01DX009 (ip), vehicle: saline) was 100 [survivor count not shown], 129 [survivor count not shown], 154 % of control [survivor count not shown]; the T/C (dose: 0.93 mg/kg/injection, schedule: Q01DX009 (ip), vehicle: saline) was 177 % of control [survivor count not shown]; the T/C (dose: 5.0 mg/kg/injection, schedule: Q04DX003 (ip), vehicle: saline) is 86 % of control [survivor count not shown].

For the compound `NC1CCCCC1.O=P(O)(NC1CCCCC1)N(CCCl)CCCl`, the T/C was 95 % of control [survivor count not shown] under setting [1] and 100 % of control [survivor count not shown] under setting [2].

Turning to `COc1ccc(C(=O)O)cc1N(CCCl)CCCl`, the T/C (dose: 0.03 mg/kg/injection, schedule: Q01DX009 (ip), vehicle: Klucel (hydroxypropylcellulose) (HPC)) was 104 % of control [survivor count not shown]; the T/C (dose: 0.06 mg/kg/injection, schedule: Q01DX009 (ip), vehicle: Klucel (hydroxypropylcellulose) (HPC)) is 114 % of control [survivor count not shown]; the T/C (dose: 0.12 mg/kg/injection, schedule: Q01DX009 (ip), vehicle: Klucel (hydroxypropylcellulose) (HPC)) is 114 % of control [survivor count not shown]; the T/C (dose: 0.25 mg/kg/injection, schedule: Q01DX009 (ip), vehicle: Klucel (hydroxypropylcellulose) (HPC)) is 115 [survivor count not shown] and 172 % of control [survivor count not shown]; the T/C (dose: 0.5 mg/kg/injection, schedule: Q01DX009 (ip), vehicle: Klucel (hydroxypropylcellulose) (HPC)) was 108 [survivor count not shown] and 209 % of control [survivor count not shown]; the T/C (dose: 1.0 mg/kg/injection, schedule: Q01DX009 (ip), vehicle: Klucel (hydroxypropylcellulose) (HPC)) was 135 % of control [survivor count not shown]. In addition, the T/C (dose: 2.0 mg/kg/injection, schedule: Q01DX009 (ip), vehicle: Klucel (hydroxypropylcellulose) (HPC)) is 153 [survivor count not shown] and 200 % of control [survivor count not shown]; the T/C (dose: 2.0 mg/kg/injection, schedule: Q04DX003 (ip), vehicle: Klucel (hydroxypropylcellulose) (HPC)) was 154 % of control [survivor count not shown]; the T/C (dose: 3.0 mg/kg/injection, schedule: Q01DX009 (ip), vehicle: Klucel (hydroxypropylcellulose) (HPC)) is 210 % of control [survivor count not shown]; the T/C (dose: 3.0 mg/kg/injection, schedule: Q04DX003 (ip), vehicle: Klucel (hydroxypropylcellulose) (HPC)) was 163 % of control [survivor count not shown]; the T/C (dose: 4.0 mg/kg/injection, schedule: Q01DX009 (ip), vehicle: Klucel (hydroxypropylcellulose) (HPC)) was 151 % of control [survivor count not shown]; the T/C (dose: 4.0 mg/kg/injection, schedule: Q04DX003 (ip), vehicle: Klucel (hydroxypropylcellulose) (HPC)) is 136 % of control [survivor count not shown]. Besides, the T/C was 240 % of control [survivor count not shown] (dose: 4.4 mg/kg/injection, schedule: Q01DX009 (ip), vehicle: Klucel (hydroxypropylcellulose) (HPC)); 90 % of control [survivor count not shown] (dose: 6.6 mg/kg/injection, schedule: Q01DX009 (ip), vehicle: Klucel (hydroxypropylcellulose) (HPC)); 186 % of control [survivor count not shown] (dose: 6.6 mg/kg/injection, schedule: Q04DX003 (ip), vehicle: Klucel (hydroxypropylcellulose) (HPC)); 190 % of control [survivor count not shown] (dose: 8.0 mg/kg/injection, schedule: Q01DX009 (ip), vehicle: Klucel (hydroxypropylcellulose) (HPC)); 231 % of control [survivor count not shown] (dose: 10.0 mg/kg/injection, schedule: Q04DX003 (ip), vehicle: Klucel (hydroxypropylcellulose) (HPC)); 100 % of control [survivor count not shown] (dose: 15.0 mg/kg/injection, schedule: Q04DX003 (ip), vehicle: Klucel (hydroxypropylcellulose) (HPC)). For the same compound, the T/C (dose: 16.0 mg/kg/injection, schedule: Q01DX009 (ip), vehicle: Klucel (hydroxypropylcellulose) (HPC)) is 123 % of control [survivor count not shown].

Turning to `Oc1c(SCCCl)c(SCCCl)c(O)c(SCCCl)c1SCCCl`, the T/C reads like this: (dose: 44.0 mg/kg/injection, schedule: Q04DX003 (ip), vehicle: saline with Tween-80) 137 % of control [survivor count not shown]; (dose: 66.0 mg/kg/injection, schedule: Q04DX003 (ip), vehicle: saline with Tween-80) 137 % of control [survivor count not shown]; under setting [1], 133 [survivor count not shown] and 145 % of control [survivor count not shown]; (dose: 150.0 mg/kg/injection, schedule: Q04DX003 (ip), vehicle: saline with Tween-80) 129 % of control [survivor count not shown]; under setting [2], 154 % of control [survivor count not shown]; (dose: 400.0 mg/kg/injection, schedule: Q04DX003 (ip), vehicle: saline with Tween-80) 181 % of control [survivor count not shown].

As to `O=C(O)COc1cccc(N(CCCl)CCCl)c1`, the T/C (dose: 1.1 mg/kg/injection, schedule: Q01DX009 (ip), vehicle: Klucel (hydroxypropylcellulose) (HPC)) is 90 % of control [survivor count not shown]; the T/C (dose: 1.7 mg/kg/injection, schedule: Q01DX009 (ip), vehicle: Klucel (hydroxypropylcellulose) (HPC)) was 103 % of control [survivor count not shown]; the T/C (dose: 2.6 mg/kg/injection, schedule: Q01DX009 (ip), vehicle: Klucel (hydroxypropylcellulose) (HPC)) is 111 % of control [survivor count not shown]; the T/C (dose: 14.0 mg/kg/injection, schedule: Q01DX009 (ip), vehicle: Klucel (hydroxypropylcellulose) (HPC)) was 141 % of control [survivor count not shown]; the T/C (dose: 19.0 mg/kg/injection, schedule: Q04DX003 (ip), vehicle: Klucel (hydroxypropylcellulose) (HPC)) is 120 % of control [survivor count not shown]; the T/C (dose: 21.0 mg/kg/injection, schedule: Q01DX009 (ip), vehicle: Klucel (hydroxypropylcellulose) (HPC)) was 145 % of control [survivor count not shown]. The T/C (dose: 29.0 mg/kg/injection, schedule: Q04DX003 (ip), vehicle: Klucel (hydroxypropylcellulose) (HPC)) is 135 % of control [survivor count not shown]; the T/C (dose: 33.0 mg/kg/injection, schedule: Q01DX009 (ip), vehicle: Klucel (hydroxypropylcellulose) (HPC)) was 181 % of control [survivor count not shown]; the T/C (dose: 45.0 mg/kg/injection, schedule: Q04DX003 (ip), vehicle: Klucel (hydroxypropylcellulose) (HPC)) is 142 % of control [survivor count not shown]; the T/C (dose: 65.0 mg/kg/injection, schedule: Q04DX003 (ip), vehicle: Klucel (hydroxypropylcellulose) (HPC)) is 157 % of control [survivor count not shown]; the T/C (dose: 66.0 mg/kg/injection, schedule: Q01DX009 (ip), vehicle: Klucel (hydroxypropylcellulose) (HPC)) is 213 % of control [survivor count not shown]; the T/C (dose: 132.0 mg/kg/injection, schedule: Q01DX009 (ip), vehicle: Klucel (hydroxypropylcellulose) (HPC)) was 127 % of control [survivor count not shown]. In addition, the T/C runs as follows: (dose: 132.0 mg/kg/injection, schedule: Q04DX003 (ip), vehicle: Klucel (hydroxypropylcellulose) (HPC)) 95 [survivor count not shown], 209 [survivor count not shown], 271 % of control [survivor count not shown]; (dose: 300.0 mg/kg/injection, schedule: Q04DX003 (ip), vehicle: Klucel (hydroxypropylcellulose) (HPC)) 86 % of control [survivor count not shown].

The record behind these values is PubChem BioAssay AID328 (DTP/NCI, 2004).
